Article PMC3781077
Changes are numbered by the printed parent chain. No constants are given. Whether binding was seen depends on the method and setting. In cells and extracts the contact can be indirect. Some binding calls cover weakened binding; strength is not graded here. For part of these data: Sequences can lack the tags named with a protein.

Amino acid sequences for entries named in this document (tags omitted).
UniProt P84022: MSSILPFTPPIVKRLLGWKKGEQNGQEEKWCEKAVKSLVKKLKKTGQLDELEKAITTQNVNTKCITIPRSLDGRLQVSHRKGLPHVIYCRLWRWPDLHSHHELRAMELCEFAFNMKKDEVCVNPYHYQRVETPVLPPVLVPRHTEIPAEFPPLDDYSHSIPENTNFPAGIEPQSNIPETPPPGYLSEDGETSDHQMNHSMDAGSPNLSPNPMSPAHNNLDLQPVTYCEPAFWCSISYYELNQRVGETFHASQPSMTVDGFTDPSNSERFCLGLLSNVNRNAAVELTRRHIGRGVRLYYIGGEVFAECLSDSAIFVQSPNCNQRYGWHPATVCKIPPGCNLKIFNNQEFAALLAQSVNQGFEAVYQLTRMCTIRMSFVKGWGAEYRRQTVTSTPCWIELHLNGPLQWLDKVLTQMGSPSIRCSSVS

Tests used:
Experiment in all cases: co-IP; HUVEC lysates (500 ug protein; wildtype, Ad-GFP, Ad-Trx or Ad-TD cells, with or without ox-LDL stimulation) immunoprecipitated with 2 ug Trx antibody overnight at 4 C, protein A and protein G-sepharose; immunoblot for Smad3 and pSmad3; normal rabbit IgG as negative control
[1] = biological target: T1, thioredoxin1 (endogenous in HUVECs) (human (endogenous in HUVECs)) (UniProt P10599)
T1 sequence: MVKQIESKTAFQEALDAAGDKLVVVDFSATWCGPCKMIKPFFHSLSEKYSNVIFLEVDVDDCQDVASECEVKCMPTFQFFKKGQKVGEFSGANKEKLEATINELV

[2] = biological target: T2, thioredoxin1 overexpressed from adenovirus (Ad-Trx) (human) (UniProt P10599)
T2 sequence: T1 sequence

[3] = biological target: T3, redox-inactive dominant-negative mutant thioredoxin1 (TD; C32S/C35S) overexpressed from adenovirus (Ad-TD) (human) (UniProt P10599)
T3 sequence: T1 sequence with C32S, C35S

Measured: binding

Smad3 (endogenous in HUVECs) (from UniProt P84022 1-425)
binds: all assays above
